# Source: the supplement of paper PMC10077471
# Whole data set: some 1,900 compounds, median “excess over highest single agent (ExcessHSA) synergy score, 6x6 matrix” near -83, cut for the lowest 2% near -370. The list shows a part of the results.
# Tested on: NCI-H446
# Assay: excess over highest single agent (ExcessHSA) synergy score, 6x6 matrix; higher = less synergy (more negative = stronger synergy)
# Details: 72 h; CellTiter-Glo viability
row,SMILES,excess over highest single agent
1,CC(C)(Cc1ccc2ccccc2c1)NC[C@@H](O)COc1cccc(Cl)c1C#N + Cc1sc2c(c1C)C(c1ccc(Cl)cc1)=N[C@@H](CC(=O)OC(C)(C)C)c1nnc(C)n1-2 [NCGC00250412-19],-82.2
2,O=C1Nc2ccc(I)cc2C1=Cc1cc(Br)c(O)c(Br)c1 + Cc1sc2c(c1C)C(c1ccc(Cl)cc1)=N[C@@H](CC(=O)OC(C)(C)C)c1nnc(C)n1-2 [NCGC00250412-19],-45.4
3,O=C(NCCO[N+](=O)[O-])c1cccnc1 + Cc1sc2c(c1C)C(c1ccc(Cl)cc1)=N[C@@H](CC(=O)OC(C)(C)C)c1nnc(C)n1-2 [NCGC00250412-19],-51
4,COC(=O)C1=C(C)NC(C)=C(C(=O)OCCCN2CCC(c3ccccc3)(c3ccccc3)CC2)[C@H]1c1cccc([N+](=O)[O-])c1 + Cc1sc2c(c1C)C(c1ccc(Cl)cc1)=N[C@@H](CC(=O)OC(C)(C)C)c1nnc(C)n1-2 [NCGC00250412-19],-92
5,Cc1cc(Nc2ncnc3ccc(-c4ccc(CNCCS(C)(=O)=O)o4)cc23)ccc1Oc1ccn2ncnc2c1 + Cc1sc2c(c1C)C(c1ccc(Cl)cc1)=N[C@@H](CC(=O)OC(C)(C)C)c1nnc(C)n1-2 [NCGC00250412-19],-16.7
6,CO[C@@]12[C@H](COC(N)=O)C3=C(C(=O)C(C)=C(N)C3=O)N1C[C@@H]1N[C@@H]12 + Cc1sc2c(c1C)C(c1ccc(Cl)cc1)=N[C@@H](CC(=O)OC(C)(C)C)c1nnc(C)n1-2 [NCGC00250412-19],-205
7,CCOC(CN1C(=O)[C@](CC(=O)Nc2ccc(C)cc2)(NC(=O)Nc2ccc(C)cc2)c2ccccc21)OCC + Cc1sc2c(c1C)C(c1ccc(Cl)cc1)=N[C@@H](CC(=O)OC(C)(C)C)c1nnc(C)n1-2 [NCGC00250412-19],-94.2
8,Cc1nnc(NS(=O)(=O)c2ccc(N)cc2)s1 + Cc1sc2c(c1C)C(c1ccc(Cl)cc1)=N[C@@H](CC(=O)OC(C)(C)C)c1nnc(C)n1-2 [NCGC00250412-19],-94.8
9,FC(F)c1nc2ccccc2n1-c1nc(N2CCOCC2)nc(N2CCOCC2)n1 + Cc1sc2c(c1C)C(c1ccc(Cl)cc1)=N[C@@H](CC(=O)OC(C)(C)C)c1nnc(C)n1-2 [NCGC00250412-19],-356
10,C[C@@H]1O[C@@H](O[C@H]2C[C@@H](O)[C@]3(CO)[C@H]4[C@H](O)C[C@]5(C)[C@@H](C6=CC(=O)OC6)CC[C@]5(O)[C@@H]4CC[C@]3(O)C2)[C@H](O)[C@H](O)[C@H]1O + Cc1sc2c(c1C)C(c1ccc(Cl)cc1)=N[C@@H](CC(=O)OC(C)(C)C)c1nnc(C)n1-2 [NCGC00250412-19],-71.9
11,C[C@@H]1C[C@H]2[C@@H]3CCC4=CC(=O)C=C[C@]4(C)[C@@]3(F)[C@@H](O)C[C@]2(C)[C@@]1(O)C(=O)CO + Cc1sc2c(c1C)C(c1ccc(Cl)cc1)=N[C@@H](CC(=O)OC(C)(C)C)c1nnc(C)n1-2 [NCGC00250412-19],111
12,CCCCC(C)(C)[C@H](O)/C=C/[C@H]1[C@H](O)CC(=O)[C@@H]1C/C=C\CCCC(=O)O + Cc1sc2c(c1C)C(c1ccc(Cl)cc1)=N[C@@H](CC(=O)OC(C)(C)C)c1nnc(C)n1-2 [NCGC00250412-19],-119
13,CC(C)Oc1ccc(C(=O)N[C@H](CNC(=O)CN(C)C)Cc2ccc(-c3cn4cccc([C@H](C)O)c4n3)cc2)cc1Cl + Cc1sc2c(c1C)C(c1ccc(Cl)cc1)=N[C@@H](CC(=O)OC(C)(C)C)c1nnc(C)n1-2 [NCGC00250412-19],-255
14,Cc1cnc(NC(=O)C2=C(O)c3ccccc3S(=O)(=O)N2C)s1 + Cc1sc2c(c1C)C(c1ccc(Cl)cc1)=N[C@@H](CC(=O)OC(C)(C)C)c1nnc(C)n1-2 [NCGC00250412-19],33.4
15,CC1(C)O[C@@H]2C[C@H]3[C@@H]4CCC5=CC(=O)C=C[C@]5(C)[C@@]4(F)[C@@H](O)C[C@]3(C)[C@]2(C(=O)CO)O1 + Cc1sc2c(c1C)C(c1ccc(Cl)cc1)=N[C@@H](CC(=O)OC(C)(C)C)c1nnc(C)n1-2 [NCGC00250412-19],69.3
16,Cc1nc(=O)c2cc(CN(C)c3ccc(C(=O)N[C@@H](CCC(=O)O)C(=O)O)s3)ccc2[nH]1 + Cc1sc2c(c1C)C(c1ccc(Cl)cc1)=N[C@@H](CC(=O)OC(C)(C)C)c1nnc(C)n1-2 [NCGC00250412-19],-297
17,CCN(c1ccccc1)c1cc(NC)[n+](C)c(C)n1 + Cc1sc2c(c1C)C(c1ccc(Cl)cc1)=N[C@@H](CC(=O)OC(C)(C)C)c1nnc(C)n1-2 [NCGC00250412-19],-39.7
18,CN1CCN(CCCN2c3ccccc3Sc3ccc(Cl)cc32)CC1 + Cc1sc2c(c1C)C(c1ccc(Cl)cc1)=N[C@@H](CC(=O)OC(C)(C)C)c1nnc(C)n1-2 [NCGC00250412-19],-339
19,CN(C)C[C@@H]1CCn2cc(c3ccccc32)C2=C(C(=O)NC2=O)c2cn(c3ccccc23)CCO1 + Cc1sc2c(c1C)C(c1ccc(Cl)cc1)=N[C@@H](CC(=O)OC(C)(C)C)c1nnc(C)n1-2 [NCGC00250412-19],-125

# 3 records drawn at random from those above:
row,SMILES,excess over highest single agent
15,CC1(C)O[C@@H]2C[C@H]3[C@@H]4CCC5=CC(=O)C=C[C@]5(C)[C@@]4(F)[C@@H](O)C[C@]3(C)[C@]2(C(=O)CO)O1 + Cc1sc2c(c1C)C(c1ccc(Cl)cc1)=N[C@@H](CC(=O)OC(C)(C)C)c1nnc(C)n1-2 [NCGC00250412-19],69.3
7,CCOC(CN1C(=O)[C@](CC(=O)Nc2ccc(C)cc2)(NC(=O)Nc2ccc(C)cc2)c2ccccc21)OCC + Cc1sc2c(c1C)C(c1ccc(Cl)cc1)=N[C@@H](CC(=O)OC(C)(C)C)c1nnc(C)n1-2 [NCGC00250412-19],-94.2
5,Cc1cc(Nc2ncnc3ccc(-c4ccc(CNCCS(C)(=O)=O)o4)cc23)ccc1Oc1ccn2ncnc2c1 + Cc1sc2c(c1C)C(c1ccc(Cl)cc1)=N[C@@H](CC(=O)OC(C)(C)C)c1nnc(C)n1-2 [NCGC00250412-19],-16.7

# (further entries)

row,SMILES,excess over highest single agent
1,CC(/C=C1\SC(=S)N(CC(=O)O)C1=O)=C\c1ccccc1 + Cc1sc2c(c1C)C(c1ccc(Cl)cc1)=N[C@@H](CC(=O)OC(C)(C)C)c1nnc(C)n1-2 [NCGC00250412-19],-68.5
2,c1ccc(CNc2nc(NCc3ccccc3)c3ccccc3n2)cc1 + Cc1sc2c(c1C)C(c1ccc(Cl)cc1)=N[C@@H](CC(=O)OC(C)(C)C)c1nnc(C)n1-2 [NCGC00250412-19],-153
3,CC(=O)[C@]1(O)Cc2c(O)c3c(c(O)c2[C@@H](O[C@H]2C[C@H](N)[C@H](O)[C@H](C)O2)C1)C(=O)c1ccccc1C3=O + Cc1sc2c(c1C)C(c1ccc(Cl)cc1)=N[C@@H](CC(=O)OC(C)(C)C)c1nnc(C)n1-2 [NCGC00250412-19],-362
4,CS(=O)(=O)N1CCc2c(-c3cnc(N)nc3)nc(N3CCOCC3)nc21 + Cc1sc2c(c1C)C(c1ccc(Cl)cc1)=N[C@@H](CC(=O)OC(C)(C)C)c1nnc(C)n1-2 [NCGC00250412-19],-391
5,Cc1ccc2c(c1)C(=O)C1(O)CCN(c3ccccc3)C1=N2 (configuration not stated) + Cc1sc2c(c1C)C(c1ccc(Cl)cc1)=N[C@@H](CC(=O)OC(C)(C)C)c1nnc(C)n1-2 [NCGC00250412-19],-126
6,Nc1cc(C(Cl)=C(Cl)Cl)c(S(N)(=O)=O)cc1S(N)(=O)=O + Cc1sc2c(c1C)C(c1ccc(Cl)cc1)=N[C@@H](CC(=O)OC(C)(C)C)c1nnc(C)n1-2 [NCGC00250412-19],-60.6
7,CN1CCN(c2c(F)cc3c(=O)c(C(=O)O)cn(CCF)c3c2F)CC1 + Cc1sc2c(c1C)C(c1ccc(Cl)cc1)=N[C@@H](CC(=O)OC(C)(C)C)c1nnc(C)n1-2 [NCGC00250412-19],-106
8,C[C@H](CCC(=O)O)[C@H]1CC[C@H]2[C@@H]3[C@H](O)C[C@@H]4C[C@H](O)CC[C@]4(C)[C@H]3CC[C@]12C + Cc1sc2c(c1C)C(c1ccc(Cl)cc1)=N[C@@H](CC(=O)OC(C)(C)C)c1nnc(C)n1-2 [NCGC00250412-19],-86.1
9,C=CC(=O)Nc1cccc(Oc2nc(Nc3ccc(N4CCN(C)CC4)cc3OC)ncc2Cl)c1 + Cc1sc2c(c1C)C(c1ccc(Cl)cc1)=N[C@@H](CC(=O)OC(C)(C)C)c1nnc(C)n1-2 [NCGC00250412-19],-270
10,NNc1nncc2ccccc12 + Cc1sc2c(c1C)C(c1ccc(Cl)cc1)=N[C@@H](CC(=O)OC(C)(C)C)c1nnc(C)n1-2 [NCGC00250412-19],-4.09
11,CC(=O)OCC(CCn1cnc2cnc(N)nc21)COC(C)=O + Cc1sc2c(c1C)C(c1ccc(Cl)cc1)=N[C@@H](CC(=O)OC(C)(C)C)c1nnc(C)n1-2 [NCGC00250412-19],-148
12,O=c1[nH]c2ccccc2n1C1CCN(Cc2ccc(-c3[nH]c4cc5ncnc5cc4nc3-c3ccccc3)cc2)CC1 + Cc1sc2c(c1C)C(c1ccc(Cl)cc1)=N[C@@H](CC(=O)OC(C)(C)C)c1nnc(C)n1-2 [NCGC00250412-19],42.7
13,C[C@@H]1CCN(C(=O)CC#N)C[C@@H]1N(C)c1ncnc2[nH]ccc12 + Cc1sc2c(c1C)C(c1ccc(Cl)cc1)=N[C@@H](CC(=O)OC(C)(C)C)c1nnc(C)n1-2 [NCGC00250412-19],169
14,O=c1[nH]c(=O)n(C2CCCO2)cc1F (configuration not stated) + Cc1sc2c(c1C)C(c1ccc(Cl)cc1)=N[C@@H](CC(=O)OC(C)(C)C)c1nnc(C)n1-2 [NCGC00250412-19],144
15,CCC(C)N(C)C(=O)c1cc2ccccc2c(-c2ccccc2Cl)n1 (configuration not stated) + Cc1sc2c(c1C)C(c1ccc(Cl)cc1)=N[C@@H](CC(=O)OC(C)(C)C)c1nnc(C)n1-2 [NCGC00250412-19],-144
16,CC(C=CC(=O)NO)=C[C@@H](C)C(=O)c1ccc(N(C)C)cc1 + Cc1sc2c(c1C)C(c1ccc(Cl)cc1)=N[C@@H](CC(=O)OC(C)(C)C)c1nnc(C)n1-2 [NCGC00250412-19],-187
17,COc1ccc([C@]2(C#N)CC[C@@H](C(=O)O)CC2)cc1OC1CCCC1 + Cc1sc2c(c1C)C(c1ccc(Cl)cc1)=N[C@@H](CC(=O)OC(C)(C)C)c1nnc(C)n1-2 [NCGC00250412-19],151
18,COCC[n+]1c2c(n(Cc3cnccn3)c1C)C(=O)c1ccccc1C2=O + Cc1sc2c(c1C)C(c1ccc(Cl)cc1)=N[C@@H](CC(=O)OC(C)(C)C)c1nnc(C)n1-2 [NCGC00250412-19],-336
